From paper PMC6615643
Results are given in words; binding and its absence hold for the method and conditions named. In cells and extracts the contact can be indirect. These calls come from enrichment with a bait or labelling near it, and not all partners need be listed. Where a sequence is shown, tags or fusion partners need not be part of it.

Chains of the proteins cited; added tags and fusions are not shown.
UniProt Q96RF0: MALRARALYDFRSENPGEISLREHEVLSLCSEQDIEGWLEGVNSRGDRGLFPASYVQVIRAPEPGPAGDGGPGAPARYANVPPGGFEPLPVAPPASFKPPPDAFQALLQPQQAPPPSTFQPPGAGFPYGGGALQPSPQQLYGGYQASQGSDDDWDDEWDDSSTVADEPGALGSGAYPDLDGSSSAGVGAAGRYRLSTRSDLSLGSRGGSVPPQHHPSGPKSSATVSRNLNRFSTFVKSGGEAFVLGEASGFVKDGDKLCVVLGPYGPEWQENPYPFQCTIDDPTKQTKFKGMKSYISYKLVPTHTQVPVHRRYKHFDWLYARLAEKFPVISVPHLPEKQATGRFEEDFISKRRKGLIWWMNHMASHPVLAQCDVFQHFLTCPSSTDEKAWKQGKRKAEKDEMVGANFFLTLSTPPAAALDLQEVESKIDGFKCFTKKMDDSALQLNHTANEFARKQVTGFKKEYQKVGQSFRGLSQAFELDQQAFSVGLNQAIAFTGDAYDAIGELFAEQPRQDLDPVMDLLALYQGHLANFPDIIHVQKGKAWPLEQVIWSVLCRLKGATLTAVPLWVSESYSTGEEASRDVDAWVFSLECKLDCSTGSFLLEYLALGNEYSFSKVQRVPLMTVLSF
UniProt O43516: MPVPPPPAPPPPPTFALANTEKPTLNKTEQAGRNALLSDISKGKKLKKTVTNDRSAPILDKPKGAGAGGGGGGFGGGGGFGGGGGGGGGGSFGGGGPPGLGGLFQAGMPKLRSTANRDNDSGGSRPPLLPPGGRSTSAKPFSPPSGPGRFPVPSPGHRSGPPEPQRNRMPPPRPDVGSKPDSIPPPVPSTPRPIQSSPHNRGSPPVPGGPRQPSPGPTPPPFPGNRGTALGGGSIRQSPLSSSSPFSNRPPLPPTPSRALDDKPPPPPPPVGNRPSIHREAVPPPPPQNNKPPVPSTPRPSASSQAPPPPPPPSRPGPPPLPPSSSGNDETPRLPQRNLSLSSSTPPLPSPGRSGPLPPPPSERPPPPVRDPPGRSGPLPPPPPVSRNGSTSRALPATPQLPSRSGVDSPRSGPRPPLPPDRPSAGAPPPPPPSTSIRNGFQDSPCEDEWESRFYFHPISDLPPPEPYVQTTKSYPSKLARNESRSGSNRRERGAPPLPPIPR
UniProt O00401: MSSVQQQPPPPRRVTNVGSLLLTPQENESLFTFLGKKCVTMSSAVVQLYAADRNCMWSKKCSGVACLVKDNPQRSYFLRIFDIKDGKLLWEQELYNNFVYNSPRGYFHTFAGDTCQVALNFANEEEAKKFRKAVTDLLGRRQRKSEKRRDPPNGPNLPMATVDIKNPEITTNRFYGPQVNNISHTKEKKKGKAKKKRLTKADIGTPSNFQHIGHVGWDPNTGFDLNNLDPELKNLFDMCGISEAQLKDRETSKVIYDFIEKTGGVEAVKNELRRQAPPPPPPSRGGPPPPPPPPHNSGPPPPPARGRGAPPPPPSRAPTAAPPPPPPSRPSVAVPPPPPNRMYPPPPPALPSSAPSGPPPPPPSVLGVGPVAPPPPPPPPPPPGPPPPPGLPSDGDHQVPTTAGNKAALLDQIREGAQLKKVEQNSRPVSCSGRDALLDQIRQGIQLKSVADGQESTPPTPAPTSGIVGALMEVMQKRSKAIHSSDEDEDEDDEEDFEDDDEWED
UniProt Q9Y5X1: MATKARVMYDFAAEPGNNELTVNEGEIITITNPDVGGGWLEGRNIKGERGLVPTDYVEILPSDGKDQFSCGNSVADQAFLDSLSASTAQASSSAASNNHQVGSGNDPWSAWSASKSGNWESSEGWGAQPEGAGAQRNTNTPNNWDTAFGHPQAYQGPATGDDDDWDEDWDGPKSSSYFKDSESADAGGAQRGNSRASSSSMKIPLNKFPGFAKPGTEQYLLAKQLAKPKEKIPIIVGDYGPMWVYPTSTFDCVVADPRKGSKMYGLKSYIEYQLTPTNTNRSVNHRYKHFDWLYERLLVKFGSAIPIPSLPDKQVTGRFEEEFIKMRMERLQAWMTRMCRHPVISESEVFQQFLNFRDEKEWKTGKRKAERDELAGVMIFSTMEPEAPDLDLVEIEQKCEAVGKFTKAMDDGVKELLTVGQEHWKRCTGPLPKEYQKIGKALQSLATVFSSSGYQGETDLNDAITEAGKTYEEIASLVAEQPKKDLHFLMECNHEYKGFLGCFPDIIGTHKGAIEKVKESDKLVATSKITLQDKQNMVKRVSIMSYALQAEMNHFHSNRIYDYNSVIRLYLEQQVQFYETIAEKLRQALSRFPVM

B1: SNX33 (protein, UniProt Q8WV41 1-574)
chain: MALKGRALYDFHSENKEEISIQQDEDLVIFSETSLDGWLQGQNSRGETGLFPASYVEIVRSGISTNHADYSSSPAGSPGAQVSLYNSPSVASPARSGGGSGFLSNQGSFEEDDDDDWDDWDDGCTVVEEPRAGGLGTNGHPPLNLSYPGAYPSQHMAFRPKPPLERQDSLASAKRGSVVGRNLNRFSCFVRSGVEAFILGDVPMMAKIAETYSIEMGPRGPQWKANPHPFACSVEDPTKQTKFKGIKSYISYKLTPTHAASPVYRRYKHFDWLYNRLLHKFTVISVPHLPEKQATGRFEEDFIEKRKRRLILWMDHMTSHPVLSQYEGFQHFLSCLDDKQWKMGKRRAEKDEMVGASFLLTFQIPTEHQDLQDVEDRVDTFKAFSKKMDDSVLQLSTVASELVRKHVGGFRKEFQKLGSAFQAISHSFQMDPPFCSEALNSAISHTGRTYEAIGEMFAEQPKNDLFQMLDTLSLYQGLLSNFPDIIHLQKGAFAKVKESQRMSDEGRMVQDEADGIRRRCRVVGFALQAEMNHFHQRRELDFKHMMQNYLRQQILFYQRVGQQLEKTLRMYDNL

Molecular target: T1, EspF, Flag-tagged, translocated into HeLa cells from EPEC-espF+EspF (enteropathogenic Escherichia coli O127:H6 E2348/69) (UniProt B7UM88)
T1 sequence: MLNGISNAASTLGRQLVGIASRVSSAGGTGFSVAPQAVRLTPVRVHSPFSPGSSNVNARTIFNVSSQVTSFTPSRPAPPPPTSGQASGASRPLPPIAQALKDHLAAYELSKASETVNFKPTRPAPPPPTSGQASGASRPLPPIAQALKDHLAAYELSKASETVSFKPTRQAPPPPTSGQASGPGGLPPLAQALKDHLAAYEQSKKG
Experiment: affinity purification with mass spectrometry; HeLa cells infected 30 min with EPEC espF (control) or espF+EspF; lysis in 50 mM Tris pH 7.4, 150 mM NaCl, 0.5% NP-40; anti-FLAG-M2 magnetic beads 4 h at 4 °C; on-bead trypsin digest, nanoLC-MS/MS, label-free quantification; quadruplicate

Molecule | binding
SNX18 (from UniProt Q96RF0 1-628) | binds
WIPF1 (WASP/WASL-interacting protein) (from UniProt O43516 1-503) | binds
neuronal Wiskott-Aldrich syndrome protein (N-WASP) (from UniProt O00401 1-505) | binds
sorting nexin 9 (SNX9) (from UniProt Q9Y5X1 1-595) | binds
B1 | binds
